Measurements from article PMC11232239.
No constants are given. Whether binding was seen depends on the method and setting. In cells and extracts the contact can be indirect. Binding can be weak; no strength is given.

Chains of the proteins cited; added tags and fusions are not shown. Lines headed by an entry give the natural chain unless they say otherwise; changes in a name come on top.
UniProt Q01813: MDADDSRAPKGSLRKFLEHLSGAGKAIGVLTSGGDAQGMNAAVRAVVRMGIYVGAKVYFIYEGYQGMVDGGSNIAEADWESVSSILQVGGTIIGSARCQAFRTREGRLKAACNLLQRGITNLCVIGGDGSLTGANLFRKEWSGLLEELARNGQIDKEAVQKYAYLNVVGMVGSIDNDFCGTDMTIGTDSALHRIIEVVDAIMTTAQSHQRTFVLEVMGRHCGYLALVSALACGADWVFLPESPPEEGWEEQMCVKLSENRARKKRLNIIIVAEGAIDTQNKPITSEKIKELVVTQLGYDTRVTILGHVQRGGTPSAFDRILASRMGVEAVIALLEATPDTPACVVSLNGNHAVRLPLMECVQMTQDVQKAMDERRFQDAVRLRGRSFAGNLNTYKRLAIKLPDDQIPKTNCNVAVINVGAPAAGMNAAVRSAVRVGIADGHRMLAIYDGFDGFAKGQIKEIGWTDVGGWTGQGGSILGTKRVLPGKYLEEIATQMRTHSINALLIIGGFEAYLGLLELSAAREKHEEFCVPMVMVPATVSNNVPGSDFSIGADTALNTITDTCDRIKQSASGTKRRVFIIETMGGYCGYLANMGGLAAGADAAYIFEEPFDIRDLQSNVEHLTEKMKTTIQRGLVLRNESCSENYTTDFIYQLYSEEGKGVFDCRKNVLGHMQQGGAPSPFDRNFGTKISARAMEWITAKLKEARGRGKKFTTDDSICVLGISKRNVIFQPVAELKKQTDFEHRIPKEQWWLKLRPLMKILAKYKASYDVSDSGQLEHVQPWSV
UniProt P28482: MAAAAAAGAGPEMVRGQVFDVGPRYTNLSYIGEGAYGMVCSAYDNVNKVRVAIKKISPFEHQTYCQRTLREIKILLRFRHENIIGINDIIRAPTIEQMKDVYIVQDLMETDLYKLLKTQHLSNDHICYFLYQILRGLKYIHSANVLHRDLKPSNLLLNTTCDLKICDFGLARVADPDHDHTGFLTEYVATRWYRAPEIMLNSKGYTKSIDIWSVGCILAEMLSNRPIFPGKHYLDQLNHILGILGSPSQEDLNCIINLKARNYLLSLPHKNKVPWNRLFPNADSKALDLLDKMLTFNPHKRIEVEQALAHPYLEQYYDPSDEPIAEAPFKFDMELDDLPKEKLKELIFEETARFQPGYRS

Biological target: PFKP mutant L596A (human) (UniProt Q01813)
Test: co-IP; TU177 cells transfected with FLAG-PFKP (wild type or mutants) and HA-ERK2 plasmids; IP for FLAG and HA, Western blotting

Question: With “HA-tagged ERK2 (from UniProt P28482 1-360)” as the substance, how does the binding read?
Answer: The binding was “binds”.
